In paper doi:10.1101/2025.07.01.662281:
Results are given in words; binding and its absence hold for the method and conditions named. Binding seen in cells or lysates may run through a third protein. Some entries that bind do so weakly or less than the wild type. Where a sequence is shown, tags or fusion partners need not be part of it.

Legend:
Tmem127-eGFP (HEK293T) = target: T1, Tmem127-eGFP (HEK293T) (UniProt Q8BGP5); experiment: co-IP
T1 sequence: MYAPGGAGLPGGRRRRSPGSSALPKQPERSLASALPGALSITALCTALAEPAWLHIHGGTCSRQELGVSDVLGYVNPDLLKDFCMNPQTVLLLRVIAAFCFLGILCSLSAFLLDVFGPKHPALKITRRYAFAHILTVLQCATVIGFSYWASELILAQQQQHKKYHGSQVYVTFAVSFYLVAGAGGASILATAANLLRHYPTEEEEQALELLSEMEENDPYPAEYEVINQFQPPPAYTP

[1] = target: T2, common gamma chain (γc), endogenous in CD8+ T cells (mouse (endogenous in CD8+ T cells)) (UniProt P34902); experiment: co-IP
T2 sequence: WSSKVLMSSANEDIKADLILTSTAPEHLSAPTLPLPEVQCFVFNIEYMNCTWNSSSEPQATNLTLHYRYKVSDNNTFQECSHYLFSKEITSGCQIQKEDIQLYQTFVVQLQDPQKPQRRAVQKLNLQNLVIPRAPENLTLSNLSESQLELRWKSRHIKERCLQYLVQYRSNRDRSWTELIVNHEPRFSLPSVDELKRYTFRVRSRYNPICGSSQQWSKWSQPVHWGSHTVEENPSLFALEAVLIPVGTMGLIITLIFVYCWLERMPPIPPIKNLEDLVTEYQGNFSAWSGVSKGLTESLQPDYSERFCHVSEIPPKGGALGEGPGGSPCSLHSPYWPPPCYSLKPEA

B1: common gamma chain (γc), overexpressed in HEK293T (receptor, UniProt P34902 23-369)
chain: T2 sequence
Tmem127-eGFP (HEK293T)
  binding: binds

B2: Tmem127-eGFP (CD8+ T cells) (protein, UniProt Q8BGP5 1-238)
chain: T1 sequence
[1]
  binding: binds
